Record: PubChem BioAssay AID743121 (NCATS, 2013)
Here is a random part of about 26,000 deposited reagents. 167 of them (0.63%) count as active. 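Calls are per gene from RSA p-values that are not deposited; an individual active-marked siRNA can sensitise only weakly.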 Further read-outs or replicates are left out here.

Test: 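Knock-downs that sensitise breast cancer cells to camptothecin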 (primary screen)
System: MDA-MB-231 cells, a human breast cancer line
Reagent: single siRNA against human genes, 20 nM siRNA (0.8 pmol per well)
Duration: 120 h (drug added 48 h after transfection, read 72 h later)
Conditions: camptothecin 20 nM (about EC30) for 72 h; vehicle 0.1% DMSO in parallel plates
Read-out: 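CellTiter-Glo ATP signal, scaled to control siRNA as percent viability; sensitisation given as log2 of untreated divided by camptothecin-treated viability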
Direction: log2 vehicle/camptothecin viability: higher = stronger sensitisation to camptothecin; viability with camptothecin: higher = more viable cells
Active means: 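Active genes have an RSA gene-level p-value below 0.001, computed from the ratios of their separate siRNAs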

| gene | PubChem SID | log2 vehicle/camptothecin viability | viability with camptothecin (% of control) | outcome |
| --- | --- | --- | --- | --- |
| DSTYK | SID164456872 | -0.0322 | 101 | inactive |
| DSTYK | SID164456874 | 0.0514 | 72.4 | inactive |
| DSTYK | SID164456875 | 0.209 | 95.1 | inactive |
| DSTYK | SID164456877 | 0.0268 | 77.4 | inactive |
| NXNL1 | SID164562710 | 0.644 | 50.6 | inactive |
| NXNL1 | SID164562713 | -0.213 | 80 | inactive |
| NXNL1 | SID164562714 | -0.735 | 106 | inactive |
| NXNL1 | SID164562715 | -0.282 | 67.4 | inactive |
| ALX4 | SID164499434 | -0.418 | 84.4 | inactive |
| ALX4 | SID164499436 | 0.0864 | 81.5 | inactive |
| ALX4 | SID164499437 | 1.06 | 32.9 | inactive |
| ALX4 | SID164499438 | 0.799 | 6.5 | inactive |
| SPRY1 | SID164409828 | -0.0917 | 81 | inactive |
| SPRY1 | SID164409831 | -0.61 | 56.1 | inactive |
| SPRY1 | SID164409835 | -0.436 | 76.3 | inactive |
| NR1H3 | SID164408406 | -0.161 | 107 | inactive |
| NR1H3 | SID164408407 | -0.533 | 68.1 | inactive |
| NR1H3 | SID164408408 | -0.451 | 72.4 | inactive |
| NR1H3 | SID164408410 | -0.252 | 118 | inactive |
| KDM5B | SID164413289 | 0.0353 | 107 | inactive |
| KDM5B | SID164413291 | 0.016 | 107 | inactive |
| KDM5B | SID174316077 | 0.0924 | 80.8 | inactive |
| KDM5B | SID174316078 | -0.446 | 139 | inactive |
| ITPKC | SID164535851 | -0.256 | 29.7 | inactive |
| ITPKC | SID164535852 | -0.0335 | 79.1 | inactive |
| ITPKC | SID164535855 | -0.018 | 79.3 | inactive |
| ITPKC | SID164535858 | -0.293 | 81.3 | inactive |
| RTP3 | SID164540805 | 0.127 | 73.9 | inactive |
| RTP3 | SID164540806 | -0.113 | 97.8 | inactive |
| RTP3 | SID164540807 | -0.302 | 72.6 | inactive |
| RTP3 | SID164540808 | -0.383 | 118 | inactive |
| GPR142 | SID164660276 | 0.0786 | 56.5 | inactive |
| GPR142 | SID164660277 | -0.23 | 71 | inactive |
| GPR142 | SID164660278 | -0.449 | 38 | inactive |
| GPR142 | SID164660280 | -0.717 | 62.3 | inactive |
| OPN1SW | SID164355190 | 0.515 | 30 | inactive |
| OPN1SW | SID164355192 | 0.177 | 28.4 | inactive |
| OPN1SW | SID164355193 | -0.208 | 61 | inactive |
| OPN1SW | SID164355194 | 0.678 | 33.9 | inactive |
| CES5A | SID164592498 | -0.00107 | 64.3 | inactive |
| CES5A | SID164592500 | 0.101 | 103 | inactive |
| CES5A | SID164592501 | -0.167 | 94.4 | inactive |
| CES5A | SID164592502 | -0.246 | 62.8 | inactive |
| TNFSF9 | SID164399602 | -0.449 | 27 | inactive |
| TNFSF9 | SID164399603 | -0.348 | 83.6 | inactive |
| TNFSF9 | SID164399604 | -0.542 | 80.1 | inactive |
| TNFSF9 | SID164399607 | -0.48 | 59.6 | inactive |

A portion taken from the entries so far:
| gene | PubChem SID | log2 vehicle/camptothecin viability | viability with camptothecin (% of control) | outcome |
| --- | --- | --- | --- | --- |
| SPRY1 | SID164409831 | -0.61 | 56.1 | inactive |
| SPRY1 | SID164409835 | -0.436 | 76.3 | inactive |
| NR1H3 | SID164408406 | -0.161 | 107 | inactive |
| NR1H3 | SID164408407 | -0.533 | 68.1 | inactive |
| NR1H3 | SID164408408 | -0.451 | 72.4 | inactive |
